Measured values taken from publication doi:10.1101/2021.08.25.457671.
Results are given in words; binding and its absence hold for the method and conditions named. Binding seen in cells or lysates may run through a third protein. These calls come from enrichment with a bait or labelling near it, and not all partners need be listed.

Sequences of proteins named here, by UniProt entry; tags and fusion partners are left off.
UniProt P10591: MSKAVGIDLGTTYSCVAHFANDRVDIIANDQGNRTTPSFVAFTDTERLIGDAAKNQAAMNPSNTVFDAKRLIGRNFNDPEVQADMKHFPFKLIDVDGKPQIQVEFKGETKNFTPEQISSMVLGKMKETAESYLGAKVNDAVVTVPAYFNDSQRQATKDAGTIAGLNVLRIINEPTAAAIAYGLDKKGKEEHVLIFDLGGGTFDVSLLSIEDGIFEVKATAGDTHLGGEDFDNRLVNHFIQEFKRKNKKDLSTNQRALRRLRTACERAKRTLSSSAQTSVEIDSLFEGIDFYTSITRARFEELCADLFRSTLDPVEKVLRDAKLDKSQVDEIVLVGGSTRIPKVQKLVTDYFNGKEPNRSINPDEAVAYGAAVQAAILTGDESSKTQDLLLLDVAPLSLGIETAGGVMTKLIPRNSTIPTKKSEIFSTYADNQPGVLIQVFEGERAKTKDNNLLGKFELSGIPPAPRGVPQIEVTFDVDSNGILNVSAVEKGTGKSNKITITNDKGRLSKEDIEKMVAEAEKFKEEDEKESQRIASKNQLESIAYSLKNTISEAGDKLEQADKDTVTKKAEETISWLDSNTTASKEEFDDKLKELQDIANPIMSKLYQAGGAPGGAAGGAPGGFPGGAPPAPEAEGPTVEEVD
UniProt P25491: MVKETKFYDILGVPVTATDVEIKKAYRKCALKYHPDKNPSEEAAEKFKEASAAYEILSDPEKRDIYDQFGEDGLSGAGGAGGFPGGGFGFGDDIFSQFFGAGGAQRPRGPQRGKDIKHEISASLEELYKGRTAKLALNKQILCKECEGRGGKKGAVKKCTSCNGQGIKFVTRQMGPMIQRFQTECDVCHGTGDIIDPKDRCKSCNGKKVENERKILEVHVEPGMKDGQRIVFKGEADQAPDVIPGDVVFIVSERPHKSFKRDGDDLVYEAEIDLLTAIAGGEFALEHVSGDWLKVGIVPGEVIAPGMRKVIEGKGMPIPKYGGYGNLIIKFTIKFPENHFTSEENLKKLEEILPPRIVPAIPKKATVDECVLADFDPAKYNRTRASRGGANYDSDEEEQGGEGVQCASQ
UniProt P47079: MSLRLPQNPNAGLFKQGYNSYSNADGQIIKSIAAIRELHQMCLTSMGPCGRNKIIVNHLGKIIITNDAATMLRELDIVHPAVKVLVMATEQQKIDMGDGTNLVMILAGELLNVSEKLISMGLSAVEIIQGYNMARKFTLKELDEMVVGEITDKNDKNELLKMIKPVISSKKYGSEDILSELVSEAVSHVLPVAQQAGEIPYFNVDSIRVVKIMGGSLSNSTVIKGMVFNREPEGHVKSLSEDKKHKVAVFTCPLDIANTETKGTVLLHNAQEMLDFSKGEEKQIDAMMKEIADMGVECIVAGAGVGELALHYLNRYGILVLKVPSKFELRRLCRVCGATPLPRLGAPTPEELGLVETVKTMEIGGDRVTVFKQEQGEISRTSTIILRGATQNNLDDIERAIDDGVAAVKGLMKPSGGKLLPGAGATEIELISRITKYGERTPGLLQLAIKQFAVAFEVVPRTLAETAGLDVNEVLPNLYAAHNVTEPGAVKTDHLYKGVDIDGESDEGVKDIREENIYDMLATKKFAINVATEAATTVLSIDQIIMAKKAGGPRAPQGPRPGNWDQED

What follows are molecules tested against HIS-tagged Ssa1 (budding yeast) (UniProt P10591) (assay: affinity purification with mass spectrometry).

binding | Molecule
binds | Ydj1 (from UniProt P25491 1-409)
binds | Cct8 found by mass spectrometry with HIS-Ssa1 (from UniProt P47079 1-568)
binds | Sse1 (protein, UniProt P32589 1-693) MSTPFGLDLGNNNSVLAVARNRGIDIVVNEVSNRSTPSVVGFGPKNRYLGETGKNKQTSNIKNTVANLKRIIGLDYHHPDFEQESKHFTSKLVELDDKKTGAEVRFAGEKHVFSATQLAAMFIDKVKDTVKQDTKANITDVCIAVPPWYTEEQRYNIADAARIAGLNPVRIVNDVTAAGVSYGIFKTDLPEGEEKPRIVAFVDIGHSSYTCSIMAFKKGQLKVLGTACDKHFGGRDFDLAITEHFADEFKTKYKIDIRENPKAYNRILTAAEKLKKVLSANTNAPFSVESVMNDVDVSSQLSREELEELVKPLLERVTEPVTKALAQAKLSAEEVDFVEIIGGTTRIPTLKQSISEAFGKPLSTTLNQDEAIAKGAAFICAIHSPTLRVRPFKFEDIHPYSVSYSWDKQVEDEDHMEVFPAGSSFPSTKLITLNRTGDFSMAASYTDITQLPPNTPEQIANWEITGVQLPEGQDSVPVKLKLRCDPSGLHTIEEAYTIEDIEVEEPIPLPEDAPEDAEQEFKKVTKTVKKDDLTIVAHTFGLDAKKLNELIEKENEMLAQDKLVAETEDRKNTLEEYIYTLRGKLEEEYAPFASDAEKTKLQGMLNKAEEWLYDEGFDSIKAKYIAKYEELASLGNIIRGRYLAKEEEKKQAIRSKQEASQMAAMAEKLAAQRKAEAEKKEEKKDTEGDVDMD
